From article PMC8454987 (PLoS Biology, 2021)
No constants are given. Whether binding was seen depends on the method and setting. For part of these data: Binding seen in cells or lysates may run through a third protein. Some binding calls cover weakened binding; strength is not graded here.

The chains behind the UniProt entries cited, without tags or fusion partners. Where a name states a change or a piece, a line headed by the entry shows the natural chain unless it says otherwise. Residues count along the entry.
UniProt P29317: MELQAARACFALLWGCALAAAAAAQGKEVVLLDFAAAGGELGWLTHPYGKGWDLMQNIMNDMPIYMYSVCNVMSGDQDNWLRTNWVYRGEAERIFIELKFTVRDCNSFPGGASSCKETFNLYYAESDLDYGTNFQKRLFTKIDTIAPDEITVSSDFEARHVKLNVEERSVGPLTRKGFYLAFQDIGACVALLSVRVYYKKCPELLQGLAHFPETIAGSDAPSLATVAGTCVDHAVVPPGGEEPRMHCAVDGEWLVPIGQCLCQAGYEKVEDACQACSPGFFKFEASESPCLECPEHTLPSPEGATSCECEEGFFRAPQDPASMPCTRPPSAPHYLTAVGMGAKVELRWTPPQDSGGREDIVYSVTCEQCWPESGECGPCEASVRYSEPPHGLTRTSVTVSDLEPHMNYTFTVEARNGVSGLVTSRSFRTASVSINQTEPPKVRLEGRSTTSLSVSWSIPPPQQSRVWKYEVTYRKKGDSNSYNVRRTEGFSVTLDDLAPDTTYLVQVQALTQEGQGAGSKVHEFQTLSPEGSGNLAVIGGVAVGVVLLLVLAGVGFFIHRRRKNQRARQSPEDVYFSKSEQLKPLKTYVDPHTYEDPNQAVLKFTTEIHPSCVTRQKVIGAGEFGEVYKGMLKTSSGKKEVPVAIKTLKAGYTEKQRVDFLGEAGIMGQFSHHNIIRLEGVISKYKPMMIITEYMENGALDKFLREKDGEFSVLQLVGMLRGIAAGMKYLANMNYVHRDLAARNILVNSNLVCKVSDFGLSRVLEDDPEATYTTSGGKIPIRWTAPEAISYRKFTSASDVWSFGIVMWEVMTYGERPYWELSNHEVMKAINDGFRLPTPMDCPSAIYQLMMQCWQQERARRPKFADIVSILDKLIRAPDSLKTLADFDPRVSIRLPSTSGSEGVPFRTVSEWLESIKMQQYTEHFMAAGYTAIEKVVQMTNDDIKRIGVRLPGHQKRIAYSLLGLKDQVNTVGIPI
EphA2 ligand-binding domain (residues 23 to 202), insect cell: residues 23-202 of P29317
UniProt F5HAK9, residues 26-704: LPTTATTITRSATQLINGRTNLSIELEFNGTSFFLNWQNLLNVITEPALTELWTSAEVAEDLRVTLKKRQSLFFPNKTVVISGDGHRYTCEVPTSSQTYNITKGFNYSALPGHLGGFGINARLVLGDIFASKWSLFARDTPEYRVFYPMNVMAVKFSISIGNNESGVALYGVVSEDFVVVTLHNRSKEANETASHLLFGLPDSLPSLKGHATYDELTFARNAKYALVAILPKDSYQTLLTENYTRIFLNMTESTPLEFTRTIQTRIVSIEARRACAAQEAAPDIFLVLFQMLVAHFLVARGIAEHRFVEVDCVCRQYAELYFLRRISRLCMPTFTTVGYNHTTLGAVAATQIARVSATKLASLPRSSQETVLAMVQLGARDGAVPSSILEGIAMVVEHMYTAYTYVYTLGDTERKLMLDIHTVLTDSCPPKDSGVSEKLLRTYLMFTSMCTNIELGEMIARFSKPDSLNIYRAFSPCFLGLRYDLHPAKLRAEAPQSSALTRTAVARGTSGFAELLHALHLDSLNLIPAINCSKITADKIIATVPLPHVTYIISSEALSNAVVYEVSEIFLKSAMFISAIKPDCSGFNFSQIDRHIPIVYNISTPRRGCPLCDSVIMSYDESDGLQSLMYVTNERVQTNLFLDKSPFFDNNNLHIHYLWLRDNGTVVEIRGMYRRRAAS

Legend:
[1] = molecular target: Full-length EphA2 wild type tagged with mTurquoise or eYFP, on HEK293T cells (human) (UniProt P29317); assay: FRET or BRET
[2] = molecular target: Full-length EphA2 wild type tagged with mTurquoise or eYFP, on HEK293T cells (human) (UniProt P29317); assay: fluorescence intensity fluctuation (FIF); molecular brightness of EphA2 WT-eYFP in the membrane of HEK293T cells; untreated (no ligand); compared with LAT (monomer) and E-cadherin (dimer) controls
[3] = molecular target: EphA2 ligand-binding domain (residues 23 to 202), insect cell (human) (UniProt P29317); assay: crystal structure; both purified

binding [1]	binding [2]	Substance	binding [3]
binds	binds	Full-length EphA2 wild type tagged with mTurquoise or eYFP, on HEK293T cells (from UniProt P29317 24-976) (receptor)	
		HHV-8 glycoprotein H ectodomain (residues 26 to 704) (from UniProt F5HAK9 26-704) (domain or fragment)	binds
